Laboratory results from PubChem BioAssay AID1347076 (National Center for Advancing Translational Sciences (NCATS), 2019).
The whole screen tested about 400,000 compounds, of which about 13,000 (3.2%) were called active. The shares of active, inactive and inconclusive entries below differ from those in the screen. The call rests on the fitted dose curve; in most records, active means well fitted cell-killing curve with a large enough effect; inconclusive means small, poorly fitted or top-dose-only effect, or effect the other way; inactive means flat fitted curve, though single readings scatter. Potencies of inconclusive entries are doubtful fits and often do not repeat.

Assay: qHTS assay for MDR1-selective chemotherapeutics: Primary screen using the drug-selected MDR subline cells KB-V1; further: nearly all actives have a fitted effect of over 60% in size
Details: KB-V1 MDR cells viability, CellTiter-Glo, 72 h; activity change, negative = cytotoxicity: at 46.1 µM (top of the series)
Method in brief: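 KB-V1 cells (P-gp-expressing MDR subline of KB-3-1) in phenol-red-free DMEM with 10% FBS were exposed to library compounds over a concentration series for 72 h at 37 degrees C. Viability read by CellTiter-Glo luminescence; concentration-effect curves fitted after normalization.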
On the % scale 0 is the no-effect control and ±100 the full control effect; potency means the concentration at half of the fitted maximal effect.

Row | SMILES | Potency | activity change, negative = cytotoxicity
1 | Cc1cc(C)cc(CC(=O)N2CCC2(C)C(=O)NS(=O)(=O)c2ccc(C#N)cc2)c1 (configuration not stated) | inactive | 
2 | COc1ccc(NC(=S)N2CCN(C(c3ccccc3)c3ccccc3)CC2)cc1OC | inconclusive: 20.6 µM [cytotoxic, single point] | 
3 | CCc1nnc(NC(=O)C2c3ccccc3Oc3ccccc32)s1 | inactive | 
4 | Cc1cccc(NC(=O)c2ccccc2OCC(=O)c2ccc(F)cc2)c1 |  | inconclusive: -41.8%
5 | O=C(CNC(=O)c1ccccc1F)NCCN1C(=O)S/C(=C\c2ccccc2Cl)C1=O | inconclusive: 8.2 µM [cytotoxic, partial curve, poor fit] | 
6 | Cc1ccc(C)c(NC(=O)CN(C)C(=O)/C=C/c2ccco2)c1 | inconclusive: 32.6 µM [cytotoxic, partial curve, poor fit] | 
7 | O=C(Cn1cc(S(=O)(=O)Cc2cccc(Cl)c2)c2ccccc21)NCCc1ccccc1 | inactive | 
8 | CCOC(=O)c1cc2c(C)n(-c3ccc(OCC)cc3)c(C)c2cc(C(=O)OCC)c1=O | inconclusive: 1.3 µM [cytotoxic, full curve] | 
9 | CCCc1c(C(=O)Nc2ccc(OC)cc2)cnn1-c1ccccc1 | inconclusive: 23.1 µM [cytotoxic, single point] | 
10 | COC(=O)c1sccc1NC(=O)c1ccc(C)o1 | inactive | 
11 | O=C1Cc2cc(S(=O)(=O)NCc3ccc(F)cc3)ccc2N1 | inactive | 
12 | O=C(N/N=C/c1ccc(Cl)c([N+](=O)[O-])c1)c1cc(-c2ccccc2)nc2ccccc12 | inactive | 
13 | CSc1ccc(N=Nc2c(C)[nH]n(C)c2=O)cc1 | inconclusive: 29.1 µM [cytotoxic, single point] | 
14 | Cc1nc(Nc2ccc(Cl)cc2Cl)sc1C(=O)Nc1ccccc1 | inconclusive: 25.9 µM [cytotoxic, single point] | 
15 | CCOc1ccccc1C(=O)NC1CC2CCCC(C1)N2Cc1ccc(C)cc1 (configuration not stated) | inconclusive: 9.2 µM [cytotoxic, partial curve] | 
16 | CCN(c1cccc(C)c1)S(=O)(=O)c1ccc2[nH]cc(C(=O)NCCCOC)c(=O)c2c1 | inconclusive: 8.2 µM [rising, partial curve] | 
17 | O=C(O)C1C2C=CC(C2)C1C(=O)NCc1cccs1 (configuration not stated) | inconclusive: 0.461 µM [cytotoxic, full curve, poor fit] | 
18 | COc1ccc2nc(-c3cccc(N)c3)[nH]c2c1 | inactive | 
19 | COc1ccc(N2CCN(CC(=O)N3CCC(C)CC3)CC2)cc1 | active: 18.4 µM | 
20 | Cc1ccccc1NC(=O)CNc1ccc(Cl)c(C(F)(F)F)c1 | inconclusive: 29.1 µM [cytotoxic, single point] | 
21 | O=C(COC(=O)CNS(=O)(=O)c1ccc(F)c(F)c1F)NC1CCCC1 | inconclusive: 3.66 µM [rising, full curve, poor fit] | 
22 | CNC(=O)C1C(=S)NC(N)=C(C#N)C1c1ccccc1 (configuration not stated) | inactive | 
23 | N=c1n(CCN2CCCCC2)c2ccccc2n1CC(=O)c1ccc(Cl)c(Cl)c1 | inconclusive: 25.9 µM [cytotoxic, single point] | 
24 | COc1ccc(CNC(=O)C(=O)Nc2ccc(OC)cc2OC)cc1 | inactive | 

Row | SMILES | Potency | activity change, negative = cytotoxicity
25 | O=C(Nc1ccc2nc(-c3cccnc3)[nH]c2c1)C1CCCCC1 | inactive | 
26 | CC(C)N1CCC(N2CCN(Cc3cccnc3)CC2CCO)CC1 (configuration not stated) | inconclusive: 29.1 µM [rising, single point] | 
27 | CC1(C(=O)NS(=O)(=O)C2CC2)CCCN(C(=O)c2c(F)cccc2F)C1 (configuration not stated) | inactive | 
28 | O=S1(=O)CCOC[C@H](Cc2ccccc2)N1Cc1ccccc1Br | inconclusive: 20.6 µM [cytotoxic, single point] | 
29 | O=C(CSc1nc(=O)n2ccccc2n1)N1CCC(Cc2ccccc2)CC1 | inconclusive: 10.3 µM [cytotoxic, partial curve, poor fit] | 
30 | Cc1cccc(-c2noc(CCCC(=O)Nc3cccnc3)n2)c1 | inconclusive: 18.4 µM [cytotoxic, single point] | 
31 | C=C(C)CSc1nc2sc3c(c2c(=O)n1-c1ccccc1)CC(C(C)C)OC3 (configuration not stated) | inconclusive: 29.1 µM [rising, single point] | 
32 | O=C(Cc1ccccc1)Nc1ncnc2c1C(c1ccccc1)c1c(ccc3ccccc13)O2 (configuration not stated) | active: 18.4 µM | 
33 | CC(=O)c1ccc(S(=O)(=O)N(C)CCCC(=O)N(C)Cc2ccccc2F)cc1 | inconclusive: 2.06 µM [rising, partial curve, poor fit] | 
34 | Cc1ccc(Cn2ccc(NC(=O)c3noc4c3CCCCC4)n2)cc1 | active: 5.17 µM | 
35 | Cc1cccc(C)c1NC(=S)N1CCC(c2ccccc2)C1 (configuration not stated) |  | inconclusive: -22.3%
36 | COc1cc(CNCCc2ccccc2F)ccc1OCC(=O)N1CCCCC1 | inconclusive: 20.6 µM [cytotoxic, single point] | 
37 | O=C(Nc1c(Cl)ccc2nsnc12)c1ccc([N+](=O)[O-])o1 | inconclusive: 18.4 µM [cytotoxic, single point] | 
38 | COc1cc(OC)cc(C(=O)/C=C2\Sc3ccccc3N2C)c1 | inactive | 
39 | CN(c1ccccc1)S(=O)(=O)c1cc(C(=O)OCC(N)=O)ccc1Cl | inactive | 
40 | CCOc1ccc(S(=O)(=O)NCc2csc(C)n2)cc1 | inconclusive: 23.1 µM [cytotoxic, partial curve, poor fit] | 
41 | O=C(Cc1cccs1)Nc1nnc(COc2ccccc2)s1 | inconclusive: 8.2 µM [cytotoxic, partial curve] | 
42 | CC(C)CN(C(=O)CCCOc1ccc(Cl)cc1Cl)c1c(N)n(Cc2ccccc2)c(=O)[nH]c1=O | inactive | 
43 | CCNC(=S)N1CCc2cc(OC)c(OC)cc2C1COc1ccc(F)cc1 (configuration not stated) | inactive | 
44 | Cc1sc2nc3c(C(=O)N4CCCC4)cc(C(=O)c4ccccc4O)cn3c(=O)c2c1C | inconclusive: 29.1 µM [cytotoxic, single point] | 
45 | COc1ccc(CNC(=O)c2c3c(nc4ccccc24)C(=O)N(C2CCCCC2)C3)c(OC)c1 | inconclusive: 20.6 µM [rising, single point] | 
46 | CCCc1c(C)[nH]c2ccccc2c1=O | inactive | 
47 | N=C1/C(=C\c2ccc(-c3cc(Cl)cc(Cl)c3)o2)C(=O)N=C2SC=C(c3ccccc3)N12 | inconclusive: 29.1 µM [cytotoxic, single point] | 

Part of the list above, with tabs:
Row	SMILES	Potency	activity change, negative = cytotoxicity
32	O=C(Cc1ccccc1)Nc1ncnc2c1C(c1ccccc1)c1c(ccc3ccccc13)O2 (configuration not stated)	active: 18.4 µM	
33	CC(=O)c1ccc(S(=O)(=O)N(C)CCCC(=O)N(C)Cc2ccccc2F)cc1	inconclusive: 2.06 µM [rising, partial curve, poor fit]	
